# From US7671049B2, “Pyrrole based inhibitors of glycogen synthase kinase 3” (Novartis Vaccines and Diagnostics, Inc., priority 2002, dated 2010)
# For at least one compound, name, drawing or mass did not settle the structure.
# System: db/db mice
# Experiment: diabetic mouse glucose tolerance test
# Type: in vivo
# Details: dosed orally for at least several days at either 60 or 100 mg/kg/day
compound,measurement,value
Cc1c(C)c2c(c(C)c1O)CCC(C)(COc1ccc(CC3SC(=O)NC3=O)cc1)O2 (stereo not shown) [Troglitazone],efficacy (reduction in blood glucose AUC) compared with the compounds of the invention,comparable
